Earlier results on one compound are cited in PMC7764601 (Molecules, 2020).

The series has as its target μ opioid receptors. As to conditions: read-out: receptor affinity (concentration); cited from earlier work.

Consider `COc1cccc(C2(O)CCCCC2CN(C)C)c1` (stereo not shown) [tramadol], for which the Ki is 2.4 nM.
